Entries after “also recorded” stand apart in the source; their conditions may differ. At least one structure is not confirmed: it was looked up by name or label, or the drawing left a doubt.
Columns and labels:
[1] = tested on: obstruction-induced persistent progression of renal fibrosis; test: Kidney transcriptome (RNA sequencing, ingenuity pathway analysis) in RUUO mice; assay type: in vivo, mouse; details: treated after the obstruction was released (7/15*d)
Excerpt: FIG. 10A and FIG. 10B display how WRG-28 and Av treatments effectively reduce RUUO-induced overwhelming fibrosis and inflammation. In FIG. 10A, total ribonucleic acid (RNA) extracts from control mice (sham) and mice treated with DMSO, WRG-28, or Av after the obstruction was released (7/15*d) underwent ingenuity pathway analysis (IPA). Both FIG. 10A and FIG. 10B illustrate large-scale transcriptome analysis, further affirming the potent effects of WRG-28 and Av in preventing and protecting kidneys from progressive fibrosis.
Total RNA was extracted from kidneys by homogenizing the samples in TRIzol reagent (Invitrogen). Chloroform was added and the homogenate separates into three layers, the upper clear aqueous containing RNA was transferred into a new tube, and RNA was precipitated by adding isopropanol. The pellets were washed with 70% ethanol and then dissolved in RNase-free water. The RNA passes the quality control, including RNA integrity number (RIN) >7, OD260/OD280 ˜1.8, etc., were sent for sequencing. Transcriptomes were analyzed by ingenuity pathway analysis (IPA).
Total ribonucleic acid (RNA) was extracted from […]: control mice (sham) and mice that received treatments with DMSO, WRG-28, or Av after the obstruction was released (7/15*d). Transcriptomes were then analyzed by ingenuity pathway analysis (IPA). […]

[2] = tested on: UUO-induced renal fibrosis; test: Unilateral ureteral obstruction (UUO) renal fibrosis model; assay type: in vivo, mouse
Experimental: Surgical ligation was performed on the left ureter of 7-to-8-week-old male mice using a nylon surgical suture. Subsequently, the mice were treated with 5 mg/kg/day of DMSO (control), BTP2, WRG-28, or Av for 7 days. […] FIG. 5B illustrates the evaluation of fibrillar collagen expression levels via Sirius red staining. FIG. 5C presents the measurement of the Sirius red-positive area using Image J. FIG. 5D, FIG. 5E, FIG. 5F, FIG. 5G, and FIG. 5H depict the protein levels of integrin β1, DDR2, Collagen 1a1, α-SMA, and E-cadherin in kidney samples from mice treated with 5 mg/kg/day of BTP2 (FIG. 5D), WRG-28 (FIG. 5F), or Av (FIG. 5H), which were assessed by Western blot analysis. […] FIG. 5K illustrates the evaluation of apoptotic cells from 5-10 pictures in each condition.
Cell lysates were harvested in RIPA buffer (150 mM NaCl, 1 mM EGTA, 50 mM Tris pH 7.4, 10% glycerol, 1% Triton X-100, 1% sodium deoxycholate, 0.1% SDS, and protease inhibitor cocktail) and collected from culture dish with cell scrapers. For tissue sample preparation, half of the kidney tissues were cut into ˜1 mm3 and then put into 500 μl RIPA buffer in 2 ml tubes. Mechanical homogenizers by agitating beads at high speeds for 30 seconds were used for tissue protein extraction. Protein samples in supernatants were collected after centrifuging the tubes at 10000 g for 10 min at 4° C. 20-30 μg protein samples were resolved by 7.5% or 10% SDS-PAGE. The protein expression levels were assessed by specific primary antibodies, including antibodies against phosphotyrosine (clone 4G10; Millipore), DDR2 (R&D), α-SMA (Sigma), Collagen 1a1 (Boster), E-cadherin (BD Biosciences), SGLT2 (Proteintech), NHE1 (Novus) and β-actin (Clone C4, Millipore), followed by incubating with secondary antibodies conjugated with HRP and detected by ECL kit (Thermo Scientific).
Procedures involving animal subjects have been approved by the Institutional Animal Care and Use Committee (IACUC) at the National Laboratory Animal Center. 7-8 weeks old male C57BL/6 mice were obtained from the animal center. Unilateral ureteral obstruction (UUO) was performed by ligating the left ureter and mice were treated with 5 mg/kg/day DMSO, BTP2, WRG-28, or Av for 7 days after ligation. After 7 days, mice were sacrificed and the kidneys were removed and used for analysis. One-quarter of the kidney was fixed by 4% paraformaldehyde and embedded in paraffin or one-quarter of the kidney was embedded in the Tissue-Tek OCT compound. Half of the kidneys are used for protein analysis. In the reversible unilateral ureteral obstruction (RUUO) experiment, the ligated-left ureter was re-connected to the bladder after UUO surgery for 7 days. The compounds, WRG-28 and Av, were injected during ligation (7*/15d) or after ligation was released (7/15*d). To assess the kidney function, the right ureter was ligated the day before leaving mice in the metabolic cage. The urine and blood were collected for blood urea nitrogen (BUN) and creatinine (CRE) test.
Deparaffinize and rehydrate tissue slides were immersed in filtered Harris Hematoxylin for 10 seconds. After extensively washing in tap water, samples were immersed in Alcoholic-Eosin for 2 minutes. The tissue was then dehydrated and mounted by resinous medium and glass coverslips.
Deparaffinize and rehydrate tissue slides were stained with Picrosirius red for one hour, followed by an extensive wash with acidified water. […]

O=C1C(O)=C([C@H]2CC[C@H](c3ccc(Cl)cc3)CC2)C(=O)c2ccccc21 [Av, atovaquone]
inflammatory responses and fibrotic signaling pathways (transcriptome, IPA) [1]: reduced
UUO-induced downregulation of E-cadherin (kidney, Western blot) ([2]; 5 mg/kg/day for 7 days): reversing
UUO-induced upregulation of integrin β1, DDR2, collagen 1a1, and α-SMA (kidney, Western blot) ([2]; 5 mg/kg/day for 7 days): suppressed
area positively stained with fibrillar collagen (Sirius red) ([2]; 5 mg/kg/day for 7 days): significantly reduced
histology: UUO-induced tubular dilation and interstitial expansion (H&E) ([2]; 5 mg/kg/day for 7 days): appeared to mitigate the effects caused by UUO
apoptotic tubular cells (TUNEL) ([2]; 5 mg/kg/day for 7 days during ureter obstruction): notably reduced; also recorded: significantly reduced
